# The other results are listed elsewhere or left out.
# B1: PX14404-bvu-534-26-534 (Bacteroides vulgatus) (protein)
# chain: EDPRGKLTPENFFSTQDELNMSIYALYQKVNLSQVYTNMQLPQWQGDDITTNPGSNKQPAAEMDKFAAANNNKGVKDAWNMHYAIVKAANLIIQGASKTPTTQDEINIALGQAKFWRAYAYFTLVRLWGPLPMNLDNVNDDYTKPLSPVEEVYGHIVQDLTEAEAVLPTGYSGSPRFLNGVNVYVTRQAAKSTLAAVYMAMAGWPMNKTEYYAKAAEKAKEVIEGVNRGEYEYKLDKDYKDVYAMSNNYNNETVLGINYSPFVDWAQDSELTSCNQFESLGGWGDAWGEIRFWKEFPDGPRKDATYDPKIRLKDGTLVDWWELKEDGTPVVPEHHPMFSIFSVNWDPASKVNTSAPYDYTKPASQNMCNDHRHRIIRYSEVLLWYAEAKARTGQTDELAFKCLNDVRERAGLEPLTGLSADDLAEAAYKEHGWEVAGYWVALVTRRADQFRMNRLKDTFKERAENTAVEVADGILVKESVEYTNRTWSDNLMYLPYPDMDSQKNPNLVR
# How the values were obtained:
# Assay in all cases: glycan array binding signal (z-score within array); higher = stronger binding
# Conditions in all cases: glycan notation: IUPAC condensed, linker removed
# [1] = biological target: Gal(b1-3)GlcNAc(b1-6)[Gal(b1-3)]GalNAc
# Summary of the method: (§1)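 Glycan array binding is given as a within-array Z-score, which can be read as non-binding when negative. The arrays, 3228 of them, came from the Consortium for Functional Glycomics database and were retained only where the protein sequence was available. Z-scores were averaged across arrays of the same protein sequence at different concentrations or buffers and across linkers.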
# [2] = biological target: Gal(b1-3)GlcNAc6S
# Summary of the method: as §1
# [3] = biological target: Gal(b1-3)[Fuc(a1-4)]GlcNAc
# Summary of the method: as §1
# [4] = biological target: Gal(b1-3)[Fuc(a1-4)]GlcNAc(b1-2)Man
# Summary of the method: as §1
# [5] = biological target: Gal(b1-3)[Fuc(a1-4)]GlcNAc(b1-2)Man(a1-3)[Gal(b1-3)[Fuc(a1-4)]GlcNAc(b1-2)Man(a1-6)]Man(b1-4)GlcNAc(b1-4)[Fuc(a1-6)]GlcNAc
# Summary of the method: as §1
# [6] = biological target: Gal(b1-3)[Fuc(a1-4)]GlcNAc(b1-3)Gal(b1-3)[Fuc(a1-4)]GlcNAc
# Summary of the method: as §1
# [7] = biological target: Gal(b1-3)[Fuc(a1-4)]GlcNAc(b1-3)Gal(b1-4)[Fuc(a1-3)]GlcNAc
# Summary of the method: as §1
# [8] = biological target: Gal(b1-3)[Fuc(a1-4)]GlcNAc(b1-6)GalNAc
# Summary of the method: as §1
# [9] = biological target: Gal(b1-3)[GlcNAc(b1-6)]GalNAc
# Summary of the method: as §1
# [10] = biological target: Gal(b1-3)[Neu5Ac(a2-6)]GalNAc
# Summary of the method: as §1
# [11] = biological target: Gal(b1-3)[Neu5Ac(a2-6)]GlcNAc(b1-4)Gal(b1-4)Glc
# Summary of the method: as §1
# [12] = biological target: Gal(b1-3)[Neu5Ac(b2-6)]GalNAc
# Summary of the method: as §1
# [13] = biological target: Gal(b1-4)Gal
# Summary of the method: as §1
# [14] = biological target: Gal(b1-4)GalNAc(a1-3)[Fuc(a1-2)]Gal(b1-4)GlcNAc
# Summary of the method: as §1
# [15] = biological target: Gal(b1-4)GalNAc(b1-3)[Fuc(a1-2)]Gal(b1-4)GlcNAc
# Summary of the method: as §1
# [16] = biological target: Gal(b1-4)Glc
# Summary of the method: as §1
# [17] = biological target: Gal(b1-4)Glc6S
# Summary of the method: as §1
# [18] = biological target: Gal(b1-4)GlcNAc
# Summary of the method: as §1
# [19] = biological target: Gal(b1-4)GlcNAc(a1-6)Gal(b1-4)GlcNAc
# Summary of the method: as §1
# [20] = biological target: Gal(b1-4)GlcNAc(b1-2)Man
# Summary of the method: as §1
# [21] = biological target: Gal(b1-4)GlcNAc(b1-2)Man(a1-3)Man(b1-4)GlcNAc(b1-4)GlcNAc
# Summary of the method: as §1
# [22] = biological target: Gal(b1-4)GlcNAc(b1-2)Man(a1-3)[Gal(b1-4)GlcNAc(b1-2)Man(a1-6)]Man(b1-4)GlcNAc(b1-4)GlcNAc
# Summary of the method: as §1
# [23] = biological target: Gal(b1-4)GlcNAc(b1-2)Man(a1-3)[Gal(b1-4)GlcNAc(b1-2)Man(a1-6)]Man(b1-4)GlcNAc(b1-4)[Fuc(a1-6)]GlcNAc
# Summary of the method: as §1
# [24] = biological target: Gal(b1-4)GlcNAc(b1-2)Man(a1-3)[Gal(b1-4)GlcNAc(b1-2)Man(a1-6)][Gal(b1-4)GlcNAc(b1-4)]Man(b1-4)GlcNAc(b1-4)[Fuc(a1-6)]GlcNAc
# Summary of the method: as §1
# [25] = biological target: Gal(b1-4)GlcNAc(b1-2)Man(a1-3)[Gal(b1-4)GlcNAc(b1-2)Man(a1-6)][GlcNAc(b1-4)]Man(b1-4)GlcNAc(b1-4)[Fuc(a1-6)]GlcNAc
# Summary of the method: as §1
# [26] = biological target: Gal(b1-4)GlcNAc(b1-2)Man(a1-3)[GlcNAc(b1-2)Man(a1-6)]Man(b1-4)GlcNAc(b1-4)GlcNAc
# Summary of the method: as §1
# [27] = biological target: Gal(b1-4)GlcNAc(b1-2)Man(a1-3)[GlcNAc(b1-4)][Gal(b1-4)GlcNAc(b1-2)Man(a1-6)]Man(b1-4)GlcNAc(b1-4)GlcNAc
# Summary of the method: as §1
# [28] = biological target: Gal(b1-4)GlcNAc(b1-2)Man(a1-3)[Man(a1-6)]Man(b1-4)GlcNAc(b1-4)GlcNAc
# Summary of the method: as §1
# [29] = biological target: Gal(b1-4)GlcNAc(b1-2)Man(a1-6)Man(b1-4)GlcNAc(b1-4)GlcNAc
# Summary of the method: as §1
# [30] = biological target: Gal(b1-4)GlcNAc(b1-2)Man(a1-6)[GlcNAc(b1-2)Man(a1-3)]Man(b1-4)GlcNAc(b1-4)GlcNAc
# Summary of the method: as §1
# [31] = biological target: Gal(b1-4)GlcNAc(b1-2)Man(a1-6)[Man(a1-3)]Man(b1-4)GlcNAc(b1-4)GlcNAc
# Summary of the method: as §1
# [32] = biological target: Gal(b1-4)GlcNAc(b1-2)[Gal(b1-4)GlcNAc(b1-4)]Man(a1-3)[Gal(b1-4)GlcNAc(b1-2)Man(a1-6)]Man(b1-4)GlcNAc(b1-4)GlcNAc
# Summary of the method: as §1
# [33] = biological target: Gal(b1-4)GlcNAc(b1-2)[Gal(b1-4)GlcNAc(b1-4)]Man(a1-3)[Gal(b1-4)GlcNAc(b1-2)[Gal(b1-4)GlcNAc(b1-6)]Man(a1-6)]Man(b1-4)GlcNAc(b1-4)GlcNAc
# Summary of the method: as §1
# [34] = biological target: Gal(b1-4)GlcNAc(b1-2)[Gal(b1-4)GlcNAc(b1-4)]Man(a1-3)[GlcNAc(b1-4)][Gal(b1-4)GlcNAc(b1-2)Man(a1-6)]Man(b1-4)GlcNAc(b1-4)GlcNAc
# Summary of the method: as §1
# [35] = biological target: Gal(b1-4)GlcNAc(b1-2)[Gal(b1-4)GlcNAc(b1-4)]Man(a1-3)[GlcNAc(b1-4)][Gal(b1-4)GlcNAc(b1-2)[Gal(b1-4)GlcNAc(b1-6)]Man(a1-6)]Man(b1-4)GlcNAc(b1-4)GlcNAc
# Summary of the method: as §1
# [36] = biological target: Gal(b1-4)GlcNAc(b1-2)[Gal(b1-4)GlcNAc(b1-6)]Man(a1-6)[Gal(b1-4)GlcNAc(b1-2)Man(a1-3)]Man(b1-4)GlcNAc(b1-4)GlcNAc
# Summary of the method: as §1
# [37] = biological target: Gal(b1-4)GlcNAc(b1-2)[Gal(b1-4)GlcNAc(b1-6)]Man(a1-6)[Gal(b1-4)GlcNAc(b1-2)Man(a1-3)]Man(b1-4)GlcNAc(b1-4)[Fuc(a1-6)]GlcNAc
# Summary of the method: as §1
binder,measurement,setting,value
B1,glycan array binding signal (z-score),[1],0.744
same,glycan array binding signal (z-score),[2],-0.497
same,glycan array binding signal (z-score),[3],0.237
same,glycan array binding signal (z-score),[4],-0.157
same,glycan array binding signal (z-score),[5],0.158
same,glycan array binding signal (z-score),[6],-0.127
same,glycan array binding signal (z-score),[7],0.687
same,glycan array binding signal (z-score),[8],0.763
same,glycan array binding signal (z-score),[9],0.791
same,glycan array binding signal (z-score),[10],-0.558
same,glycan array binding signal (z-score),[11],0.099
same,glycan array binding signal (z-score),[12],-1.21
same,glycan array binding signal (z-score),[13],-1.37
same,glycan array binding signal (z-score),[14],1.16
same,glycan array binding signal (z-score),[15],-1.15
same,glycan array binding signal (z-score),[16],-0.037
same,glycan array binding signal (z-score),[17],0.084
same,glycan array binding signal (z-score),[18],-0.18
same,glycan array binding signal (z-score),[19],-1.04
same,glycan array binding signal (z-score),[20],-0.537
same,glycan array binding signal (z-score),[21],-0.296
same,glycan array binding signal (z-score),[22],-1.02
same,glycan array binding signal (z-score),[23],0.589
same,glycan array binding signal (z-score),[24],-1.6
same,glycan array binding signal (z-score),[25],-0.69
same,glycan array binding signal (z-score),[26],-0.124
same,glycan array binding signal (z-score),[27],-1.44
same,glycan array binding signal (z-score),[28],1.36
same,glycan array binding signal (z-score),[29],-0.242
same,glycan array binding signal (z-score),[30],-1.25
same,glycan array binding signal (z-score),[31],-0.492
same,glycan array binding signal (z-score),[32],-0.23
same,glycan array binding signal (z-score),[33],-0.575
same,glycan array binding signal (z-score),[34],0.657
same,glycan array binding signal (z-score),[35],0.259
same,glycan array binding signal (z-score),[36],-0.038
same,glycan array binding signal (z-score),[37],-0.583

# Already shown: entries from further up.
binder,measurement,setting,value
B1,glycan array binding signal (z-score),[24],-1.6
same,glycan array binding signal (z-score),[25],-0.69
same,glycan array binding signal (z-score),[26],-0.124

# — the supplement of paper PMC8728848
